Source: PubChem BioAssay AID1259323 (Peter MacCallum Cancer Centre, 2017)
Purpose: 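Kinases required for PAR2 signalling to open the TRPV4 channel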 (primary screen). System: human HEK293 cells stably carrying inducible TRPV4. Reagent: siRNA pool against human genes. Treatment: PAR2 activation; agonist identity and dose not given. Measured: 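Real-time Fura-2 calcium after PAR2 activation; early peak and later plateau each as % of mock-transfected wells on the plate, mean of two plates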. Scale: TRPV4 plateau calcium, % of mock: higher = stronger sustained TRPV4 calcium entry than mock; PAR2 peak calcium, % of mock: higher = stronger early PAR2 calcium response than mock. Rule for the call: 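Active when sustained TRPV4 plateau calcium falls below 90% of mock while the early PAR2 peak remains above 79% of mock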.
The whole screen tested 715 reagents; shown is a random part of them. Of all reagents, 91 (13%) got an active call. 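Active pools lower the sustained TRPV4 phase but spare the early PAR2 peak; PAR2 agonist and dose are not stated; pools repeat across wells.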 Reagent sequences are not shown. Not stated in the record: the amount of reagent, the time to read-out.

For CALM2 (calmodulin 2) [SID336297622], the values are TRPV4 plateau calcium, % of mock 103; PAR2 peak calcium, % of mock 104; inactive. Knock-down of FASTK (Fas activated serine/threonine kinase) [SID336297252] resulted in: TRPV4 plateau calcium, % of mock 81.5; PAR2 peak calcium, % of mock 85.9; active. EPHB6 (EPH receptor B6) [SID336297319] gave TRPV4 plateau calcium, % of mock 101; PAR2 peak calcium, % of mock 99.5; inactive. With knock-down of PIK3CA [SID336297129] the results were TRPV4 plateau calcium, % of mock 103; PAR2 peak calcium, % of mock 98.8; inactive. Knock-down of ILK (integrin linked kinase) [SID336297389] came out at: TRPV4 plateau calcium, % of mock 110; PAR2 peak calcium, % of mock 107; inactive. Against ILK (integrin linked kinase) [SID336297610], the entry reads TRPV4 plateau calcium, % of mock 91.8; PAR2 peak calcium, % of mock 95.3; inactive.

CSNK1G1 (casein kinase 1 gamma 1) [SID336297155] gave TRPV4 plateau calcium, % of mock 111; PAR2 peak calcium, % of mock 105; inactive. After knock-down of ROR2 (ROR family WNT receptor 2) [SID336297356], the screen gave TRPV4 plateau calcium, % of mock 103; PAR2 peak calcium, % of mock 82.4; inactive. After knock-down of GALK1 (galactokinase 1) [SID336297679], the screen gave TRPV4 plateau calcium, % of mock 96.2; PAR2 peak calcium, % of mock 99.8; inactive. NPR2 (natriuretic peptide receptor 2) [SID336297175] scored TRPV4 plateau calcium, % of mock 88.6; PAR2 peak calcium, % of mock 92.3; active. Against MYLK3 (myosin light chain kinase 3) [SID336297142] the deposit lists TRPV4 plateau calcium, % of mock 91.5; PAR2 peak calcium, % of mock 91.9; inactive. Knock-down of AK5 (adenylate kinase 5) [SID336297506] gave: TRPV4 plateau calcium, % of mock 104; PAR2 peak calcium, % of mock 107; inactive.

Against PDGFRA (platelet derived growth factor receptor alpha) [SID336297721], the values are TRPV4 plateau calcium, % of mock 114; PAR2 peak calcium, % of mock 107; inactive. Against DDR2 (discoidin domain receptor tyrosine kinase 2) [SID336297386], the entry reads TRPV4 plateau calcium, % of mock 95.1; PAR2 peak calcium, % of mock 104; inactive. After knock-down of TRPM7 [SID336297668], the record shows TRPV4 plateau calcium, % of mock 87.1; PAR2 peak calcium, % of mock 79.8; active. Silencing of PKM (pyruvate kinase M1/2) [SID336297127] came out at: TRPV4 plateau calcium, % of mock 121; PAR2 peak calcium, % of mock 108; inactive. AK2 (adenylate kinase 2) [SID336297673] showed TRPV4 plateau calcium, % of mock 98; PAR2 peak calcium, % of mock 96.4; inactive.

Records above whose gene name begins with C or c:
CALM2 (calmodulin 2) [SID336297622] — TRPV4 plateau calcium, % of mock: 103; PAR2 peak calcium, % of mock: 104; Call: inactive
CSNK1G1 (casein kinase 1 gamma 1) [SID336297155] — TRPV4 plateau calcium, % of mock: 111; PAR2 peak calcium, % of mock: 105; Call: inactive

Further entries:
Silencing of MAP2K7 (mitogen-activated protein kinase kinase 7) [SID336297318] came out at: TRPV4 plateau calcium, % of mock 99.5; PAR2 peak calcium, % of mock 96.3; inactive. After knock-down of CDK17 (cyclin dependent kinase 17) [SID336297746], the screen gave TRPV4 plateau calcium, % of mock 100; PAR2 peak calcium, % of mock 102; inactive. Silencing of EEF2K (eukaryotic elongation factor 2 kinase) [SID336297133] came out at: TRPV4 plateau calcium, % of mock 94.4; PAR2 peak calcium, % of mock 93.1; inactive. PRKD1 (protein kinase D1) [SID336297223] showed TRPV4 plateau calcium, % of mock 106; PAR2 peak calcium, % of mock 98; inactive. Against CHEK1 (checkpoint kinase 1) [SID336297312] the deposit lists TRPV4 plateau calcium, % of mock 78.7; PAR2 peak calcium, % of mock 64.6; inactive. After knock-down of PRKACG (protein kinase cAMP-activated catalytic subunit gamma) [SID336297086] the results were TRPV4 plateau calcium, % of mock 104; PAR2 peak calcium, % of mock 101; inactive.

Silencing of JAK3 (Janus kinase 3) [SID336297239] came out at: TRPV4 plateau calcium, % of mock 80; PAR2 peak calcium, % of mock 79.4; active. Knock-down of PTK7 (protein tyrosine kinase 7 (inactive)) [SID336297431] resulted in: TRPV4 plateau calcium, % of mock 111; PAR2 peak calcium, % of mock 105; inactive. CDK11A (cyclin dependent kinase 11A) [SID336297314] showed TRPV4 plateau calcium, % of mock 96.1; PAR2 peak calcium, % of mock 94.4; inactive. Against MAP2K3 (mitogen-activated protein kinase kinase 3) [SID336297300] the deposit lists TRPV4 plateau calcium, % of mock 97.9; PAR2 peak calcium, % of mock 93.8; inactive.
